No constants are given. Whether binding was seen depends on the method and setting. Binding seen in cells or lysates may run through a third protein. Some entries that bind do so weakly or less than the wild type.
Assays:
[1] = biological target: T1, N-terminal segment (amino acid residues 1-411) of RHBDF1 (human) (UniProt Q96CC6); test: co-IP; MCF-7 cells co-transfected with JNK1, 2 or 3 and RHBDF1 fragments
T1 sequence: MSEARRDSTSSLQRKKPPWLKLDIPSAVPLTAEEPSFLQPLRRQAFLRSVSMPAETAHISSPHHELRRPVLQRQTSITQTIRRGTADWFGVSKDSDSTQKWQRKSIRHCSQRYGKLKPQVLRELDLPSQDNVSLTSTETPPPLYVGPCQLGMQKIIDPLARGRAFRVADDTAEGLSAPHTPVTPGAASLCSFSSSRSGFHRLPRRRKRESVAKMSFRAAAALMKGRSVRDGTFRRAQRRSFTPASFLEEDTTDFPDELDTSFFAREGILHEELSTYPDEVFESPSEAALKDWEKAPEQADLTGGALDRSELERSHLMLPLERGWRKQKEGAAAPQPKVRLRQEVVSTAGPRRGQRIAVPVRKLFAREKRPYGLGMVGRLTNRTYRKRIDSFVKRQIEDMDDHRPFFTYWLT

Chains of the proteins cited; added tags and fusions are not shown.
UniProt P53779: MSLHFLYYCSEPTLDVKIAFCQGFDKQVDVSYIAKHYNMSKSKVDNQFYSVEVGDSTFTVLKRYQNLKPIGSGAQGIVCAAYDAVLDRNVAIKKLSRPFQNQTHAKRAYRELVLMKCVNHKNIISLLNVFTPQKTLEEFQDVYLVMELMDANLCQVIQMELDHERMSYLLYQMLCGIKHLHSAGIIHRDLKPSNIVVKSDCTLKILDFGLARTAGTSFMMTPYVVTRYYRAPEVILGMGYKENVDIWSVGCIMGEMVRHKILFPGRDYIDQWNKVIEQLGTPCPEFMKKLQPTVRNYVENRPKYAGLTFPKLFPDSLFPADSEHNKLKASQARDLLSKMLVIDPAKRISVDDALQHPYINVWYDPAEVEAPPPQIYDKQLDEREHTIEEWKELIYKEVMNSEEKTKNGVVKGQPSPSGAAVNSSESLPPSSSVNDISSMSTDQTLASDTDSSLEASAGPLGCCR
UniProt O14733: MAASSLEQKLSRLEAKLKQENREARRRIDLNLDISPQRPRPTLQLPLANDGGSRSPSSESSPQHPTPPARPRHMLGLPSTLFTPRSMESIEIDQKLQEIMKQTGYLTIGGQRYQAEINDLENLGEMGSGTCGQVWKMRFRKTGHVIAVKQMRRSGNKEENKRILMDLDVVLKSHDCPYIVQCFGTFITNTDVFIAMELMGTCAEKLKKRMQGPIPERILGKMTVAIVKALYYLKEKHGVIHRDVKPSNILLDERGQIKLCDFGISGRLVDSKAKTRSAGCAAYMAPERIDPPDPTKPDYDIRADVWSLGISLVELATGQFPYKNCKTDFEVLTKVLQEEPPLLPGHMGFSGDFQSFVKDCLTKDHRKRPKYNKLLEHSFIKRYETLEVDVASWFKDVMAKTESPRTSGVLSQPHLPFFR
UniProt P45983: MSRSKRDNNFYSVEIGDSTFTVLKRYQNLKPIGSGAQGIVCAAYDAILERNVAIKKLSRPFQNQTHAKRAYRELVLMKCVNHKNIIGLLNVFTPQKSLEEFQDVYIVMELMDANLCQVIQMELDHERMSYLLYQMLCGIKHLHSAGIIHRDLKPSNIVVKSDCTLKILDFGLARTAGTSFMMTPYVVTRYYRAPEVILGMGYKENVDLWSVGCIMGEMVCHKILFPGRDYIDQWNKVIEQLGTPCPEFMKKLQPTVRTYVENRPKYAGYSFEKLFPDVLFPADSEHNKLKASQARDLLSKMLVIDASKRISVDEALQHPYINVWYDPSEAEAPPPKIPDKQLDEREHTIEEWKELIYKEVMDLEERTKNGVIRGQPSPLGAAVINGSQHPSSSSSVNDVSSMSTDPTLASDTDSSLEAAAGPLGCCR

[2] = biological target: T2, RHBDF1 (human rhomboid family-1) (UniProt Q96CC6); test: co-IP; co-immunoprecipitation of endogenous p-JNK and p-MKK7 with RHBDF1; cells and precipitated partner not told
T2 sequence: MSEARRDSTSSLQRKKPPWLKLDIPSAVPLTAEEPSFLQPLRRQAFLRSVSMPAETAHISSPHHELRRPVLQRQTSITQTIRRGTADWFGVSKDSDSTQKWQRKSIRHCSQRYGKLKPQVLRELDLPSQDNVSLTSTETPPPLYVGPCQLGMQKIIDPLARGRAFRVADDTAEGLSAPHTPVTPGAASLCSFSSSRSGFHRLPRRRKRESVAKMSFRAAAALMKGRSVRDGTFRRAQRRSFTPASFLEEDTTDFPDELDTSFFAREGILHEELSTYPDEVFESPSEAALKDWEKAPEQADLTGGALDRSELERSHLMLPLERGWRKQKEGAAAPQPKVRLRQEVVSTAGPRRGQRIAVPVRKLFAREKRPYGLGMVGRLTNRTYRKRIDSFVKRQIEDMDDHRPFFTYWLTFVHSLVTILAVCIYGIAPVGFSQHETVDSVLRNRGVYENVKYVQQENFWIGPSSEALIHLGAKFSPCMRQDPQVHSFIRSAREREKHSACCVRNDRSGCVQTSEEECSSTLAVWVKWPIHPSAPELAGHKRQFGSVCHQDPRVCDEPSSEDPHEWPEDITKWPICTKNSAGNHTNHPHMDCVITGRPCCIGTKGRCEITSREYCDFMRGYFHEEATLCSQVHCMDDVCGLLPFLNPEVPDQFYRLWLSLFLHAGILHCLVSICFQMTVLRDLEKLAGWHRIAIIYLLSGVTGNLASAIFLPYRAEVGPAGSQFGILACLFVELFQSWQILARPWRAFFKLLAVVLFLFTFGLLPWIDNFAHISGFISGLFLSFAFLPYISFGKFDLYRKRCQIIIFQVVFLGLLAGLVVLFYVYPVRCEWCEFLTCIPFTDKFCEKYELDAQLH

| binding [1] | binding [2] | Substance |
| --- | --- | --- |
| binds | – | JNK3 (from UniProt P53779 1-464) |
| – | binds | endogenous p-MKK7 (from UniProt O14733 1-419) |
| binds | – | JNK2 (from UniProt P45984 1-424) |
| binds weakly | – | JNK1 (from UniProt P45983 1-427) |
